Assay results: patent EP4825855A1, “COMPOUND CONTAINING PYRAZOLE RING AND BICYCLIC HETEROARYL GROUP, PHARMACEUTICAL COMPOSITION THEREOF AND USE THEREOF” (dated 2026)

Protein sequences, listed by entry. Tags and fused reporters are not part of them. Lines headed by an entry give the natural chain unless they say otherwise; changes in a name come on top.
UniProt Q06187, whole entry: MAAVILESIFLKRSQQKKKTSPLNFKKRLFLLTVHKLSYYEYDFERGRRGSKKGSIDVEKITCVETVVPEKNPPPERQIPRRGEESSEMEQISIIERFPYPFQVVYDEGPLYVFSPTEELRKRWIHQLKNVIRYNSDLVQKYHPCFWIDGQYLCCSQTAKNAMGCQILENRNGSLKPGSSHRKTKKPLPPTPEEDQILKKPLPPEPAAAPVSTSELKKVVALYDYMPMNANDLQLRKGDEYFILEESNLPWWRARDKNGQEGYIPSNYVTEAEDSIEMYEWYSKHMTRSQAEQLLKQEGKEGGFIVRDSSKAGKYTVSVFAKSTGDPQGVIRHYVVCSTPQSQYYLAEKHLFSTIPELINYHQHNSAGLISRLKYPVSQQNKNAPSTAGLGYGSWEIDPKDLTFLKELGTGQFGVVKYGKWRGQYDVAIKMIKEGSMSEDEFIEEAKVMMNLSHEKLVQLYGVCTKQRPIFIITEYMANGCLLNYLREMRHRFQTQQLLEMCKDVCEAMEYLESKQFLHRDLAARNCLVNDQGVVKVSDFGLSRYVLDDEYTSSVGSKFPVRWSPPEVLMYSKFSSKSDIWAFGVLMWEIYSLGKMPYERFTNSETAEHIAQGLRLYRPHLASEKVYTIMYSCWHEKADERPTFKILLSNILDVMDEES
UniProt Q06187, whole entry C481S: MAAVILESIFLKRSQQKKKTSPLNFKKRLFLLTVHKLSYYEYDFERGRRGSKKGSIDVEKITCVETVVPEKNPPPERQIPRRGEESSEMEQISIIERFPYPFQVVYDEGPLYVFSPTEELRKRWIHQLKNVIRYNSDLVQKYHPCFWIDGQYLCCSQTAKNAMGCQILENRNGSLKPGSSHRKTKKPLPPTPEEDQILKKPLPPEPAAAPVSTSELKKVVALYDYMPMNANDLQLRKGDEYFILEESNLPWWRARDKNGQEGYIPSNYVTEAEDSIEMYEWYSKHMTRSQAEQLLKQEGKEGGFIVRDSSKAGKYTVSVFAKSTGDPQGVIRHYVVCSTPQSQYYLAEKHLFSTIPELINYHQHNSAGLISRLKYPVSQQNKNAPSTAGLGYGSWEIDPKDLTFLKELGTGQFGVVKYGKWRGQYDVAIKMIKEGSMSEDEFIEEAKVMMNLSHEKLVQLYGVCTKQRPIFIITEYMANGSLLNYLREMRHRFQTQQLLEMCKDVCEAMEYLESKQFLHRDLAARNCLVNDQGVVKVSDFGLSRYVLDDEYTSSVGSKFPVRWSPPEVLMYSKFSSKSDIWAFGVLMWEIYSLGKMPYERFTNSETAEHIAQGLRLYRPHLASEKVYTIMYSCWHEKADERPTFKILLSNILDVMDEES

Experiments:
BTK(WT) kinase = BTK(WT) kinase (Homo sapiens, UniProt Q06187); experiment: Inhibitory activity against BTK(WT) kinase; details: read-out: BTK(WT) kinase inhibition IC50(nM )
Description: (§1) BTK kinase solution (concentration: 0.003 ng/µL) was added to assay wells at 6 µL/well, and different compounds dissolved in DMSO were added to the assay wells separately using a nanoliter pipettor, such that the final concentrations of the compounds were 1000 nM to 0.244 nM. The wells were set in duplicate, and a control well was set. After a 30-min incubation of the above system, ATP (concentration: 50 µM) was mixed with ULight-poly GT substrate (manufacturer: PerkinElmer, concentration: 0.5 µM) in a ratio of 1:1, and the mixture was added to the assay wells at 4 µL/well. The resulting mixture was left to react at room temperature for 2 h, and then 5 µL of EDTA was added to terminate the reaction, followed by the addition of 5 µL of a detection antibody (manufacturer: PerkinElmer, concentration: 8 nM). The mixture was incubated at room temperature for 1 h. The assay was performed using a PerkinElmer Envision multifunctional microplate reader (excitation: 320 nm, emission: 615 nm/665 nm), and IC50 was calculated by four-parameter fitting.

OCI-LY10 cells = experiment: Inhibitory activity against OCI-LY10 cell proliferation (CCK-8); details: 72 h incubation
Description: OCI-LY10 cells in a good growth state were collected into a centrifuge tube, adjusted to a cell density of 9 × 10^4 cells/mL using an assay medium (1640 + 10% FBS), and seeded onto a 96-well plate (100 µL/well). The cells were incubated overnight in a cell incubator. Compounds were added using a nanoliter pipettor such that the final concentrations of the compounds were 1000 nM to 1.64 nM (the addition was performed in duplicate). Meanwhile, a control was set. After 72 h of incubation in the cell incubator, the assay reagent CCK-8 (manufacturer: Dojindo Laboratories; 10 µL/well) was added. After 4 h of incubation in the cell incubator, the absorbance values were measured at 450 nm on a PerkinElmer Envision microplate reader. A four-parameter analysis was performed, a dose-response curve was fitted, and IC50 was calculated. Table 1. Inhibitory activity against OCI-LY10 cell proliferation

BTK(C481S) kinase = BTK(C481S) kinase (Homo sapiens, UniProt Q06187, C481S); experiment: Inhibitory activity against BTK(C481S) kinase; details: read-out: BTK(C481S) kinase inhibition IC50(nM )
Description: as §1, with “BTK(C481S)” for “BTK”, “0.006” for “0.003”, “fitting. The test results are shown in Table 3, where A represents: the IC50 value ≤ 10 nM.” for “fitting.”

Measured: IC50

CC(O)c1nc(Nc2cnn(-c3ccc(CNC(=O)c4cc(F)cc5cccnc45)cc3)c2C(N)=O)ccc1N1CCN(C)CC1 (stereo not drawn)
< 10 nM: all assays above

COCCN1CCN(c2ccc(Nc3cnn(-c4ccc(CNc5nc(C)cc6c(F)ccc(OC)c56)cc4)c3C(N)=O)nc2C(O)C2CC2)CC1 (stereo not drawn)
< 10 nM: all assays above

[2H]C([2H])([2H])OC(c1nc(Nc2cnn(-c3ccc(CNC(=O)c4cc(F)cc5cccnc45)cc3)c2C(N)=O)ccc1N1CCN(C([2H])([2H])[2H])CC1)C1CC1 (stereo not drawn)
< 10 nM: all assays above

Structures were worked out from names or drawings and are uncertain.
